From PubChem BioAssay AID1671190 (National Center for Advancing Translational Sciences (NCATS), 2021)
In all, about 580,000 compounds went through this assay and about 6,100 (1.1%) were called active. Inconclusive results, whose numbers are uncertain, are shown with a selection of clear calls. The call rests on the fitted dose curve; in most records, active means well fitted inhibition curve with a large enough effect; inconclusive means small, poorly fitted or top-dose-only effect, or another doubt; inactive means no such curve, though single readings can be large or run the other way. Potencies beside an inconclusive call are fits to weak or partial responses and may not hold up.

Amino acid sequences for entries named in this document (tags omitted). A change or cut given only in a name is not applied to a line headed by its entry.
UniProt P18054: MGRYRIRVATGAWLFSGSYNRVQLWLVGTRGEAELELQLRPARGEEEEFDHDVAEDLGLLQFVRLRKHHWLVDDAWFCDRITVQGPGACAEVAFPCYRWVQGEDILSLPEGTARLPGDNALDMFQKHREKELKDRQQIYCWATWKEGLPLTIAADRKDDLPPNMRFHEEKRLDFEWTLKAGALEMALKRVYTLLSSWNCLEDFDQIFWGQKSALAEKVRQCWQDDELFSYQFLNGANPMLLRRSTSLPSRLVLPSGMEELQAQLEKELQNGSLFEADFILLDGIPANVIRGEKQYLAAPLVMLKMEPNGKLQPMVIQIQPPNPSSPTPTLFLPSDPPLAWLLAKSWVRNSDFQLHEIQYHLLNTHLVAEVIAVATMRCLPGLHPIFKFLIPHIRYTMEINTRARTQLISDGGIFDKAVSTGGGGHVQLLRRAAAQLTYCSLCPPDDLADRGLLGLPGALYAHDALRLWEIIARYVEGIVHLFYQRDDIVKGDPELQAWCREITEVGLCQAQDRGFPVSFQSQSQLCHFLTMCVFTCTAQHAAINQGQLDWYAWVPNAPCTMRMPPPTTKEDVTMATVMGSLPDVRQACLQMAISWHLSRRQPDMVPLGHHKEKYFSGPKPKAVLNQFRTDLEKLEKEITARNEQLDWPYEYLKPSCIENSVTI

What follows are compounds tested against Polyunsaturated fatty acid lipoxygenase ALOX12 (Homo sapiens) (UniProt P18054) (assay: Primary qHTS assay for inhibitors of human arachidonate 12S-lipoxygenase (ALOX12): Round 2). Conditions: purified 12hLO, xylenol orange hydroperoxide absorbance; activity change, negative = inhibition: at 108 µM (top of the series) unless noted.
In short: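 Purified human 12hLO (150 nM final) in 25 mM Hepes, 0.01% Triton X-100, pH 7.0 was preincubated 15 min at room temperature with compound. Then 40 uM arachidonic acid was added, 30 min. Hydroperoxide was read by Fe-XO absorbance ratio 573/405 nm.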
On the % scale 0 is the no-effect control and ±100 the full control effect; potency means the concentration at half of the fitted maximal effect.

SMILES	Potency	activity change, negative = inhibition
COc1cc(/C=N/NC(=S)NCc2ccccc2)ccc1OCC#N	inconclusive: 39.8 µM [inhibitor, partial curve]	–
CC(Cn1cccn1)Nc1ccc(-c2nc(COc3ccccc3)no2)cn1 (configuration not stated)	–	inactive: 146%
COc1ccc(OC)c(C2C3=C(CCCC3=O)Nc3nc(SCc4ccccc4F)[nH]c(=O)c32)c1 (configuration not stated)	inconclusive: 31.6 µM [inhibitor, partial curve, poor fit]	–
O=C(c1ccc([N+](=O)[O-])cc1)N1CCN(c2ncccn2)CC1	inconclusive: 112 µM [inhibitor, single point]	–
CCNc1ncc(CN2CCCC(CCc3cccc(C(F)(F)F)c3)C2)cn1 (configuration not stated)	–	inactive: 48.9%
COc1cccc(CSc2nnnn2-c2ccc(O)cc2)c1	–	inactive: -11.1%
COc1ccc(C(NC(=O)c2nn(C)c(=O)c3ccccc23)C(C)C)cc1 (configuration not stated)	–	inactive: -3.62%
CCc1cnc2c(c1SCC(=O)Nc1ccccc1C)c(=O)n(C)c(=O)n2C	–	inactive: -0.285%
CN1CCN(NC(=O)c2ccc(Br)s2)CC1	–	inactive: 8.67%
NC(Cc1cccc2nsnc12)C(=O)O (configuration not stated)	inconclusive: 0.398 µM [inhibitor, full curve, poor fit]	–
COc1ccc(C(=O)Nc2cc(OC)c(NC(=O)Nc3ccccc3)cc2OC)cc1	inconclusive: 44.7 µM [inhibitor, partial curve, poor fit]	–
Cc1nnc(SCC(=O)NCc2ccc3c(c2)OCO3)[nH]c1=O	inconclusive: 5.62 µM [inhibitor, full curve, poor fit]	–
COc1ccccc1N1CCN(CCOc2c(OC)cccc2OC)CC1	inconclusive: 39.8 µM [inhibitor, partial curve, poor fit]	–
Cc1nc(CN2CCN(CC3(O)CNCCOC3)CC2)cs1 (configuration not stated)	inconclusive: 10 µM [inhibitor, full curve]	–
O=C(Nc1ccc2ncccc2c1)c1cccc(Br)c1	inconclusive: 50.1 µM [inhibitor, partial curve, poor fit]	–
O=C(NCC1(N2CCOCC2)CCCCC1)c1cccc(NC(=O)c2cccs2)c1	–	inactive: -14.4%
CC(=O)N1CCCc2cc(S(=O)(=O)N3CCCC(C(=O)Nc4ccc(C)c(F)c4)C3)ccc21 (configuration not stated)	inconclusive: 89.1 µM [inhibitor, partial curve, poor fit]	–
CC1(C)Cc2c(sc3c2C(=O)N(c2ccccc2)C2=NCCN23)CS1	inconclusive: 39.8 µM [inhibitor, partial curve, poor fit]	–
Cc1ccc(NC(=O)c2n[nH]c(=O)c3ccccc23)c(O)c1	inconclusive: 28.2 µM [inhibitor, single point]	–
COC(=O)[C@H](Cc1ccccc1)N1C/C=C\COc2c(Cl)cc(Cl)cc2S1(=O)=O	inconclusive: 3.16 µM [inhibitor, full curve, poor fit]	–
COc1ccc(CCN2C(=S)N(C)C(=O)C2CC(=O)Nc2ccc(F)cc2)cc1 (configuration not stated)	inconclusive: 112 µM [inhibitor, single point]	–
COC(=O)c1ccccc1NC(=O)CN1CCC(NC(=O)c2ccc(C)cc2)CC1	–	inactive: 0%
O=C(c1ccccc1)c1ccc(OCCCN2CCCCC2)cc1	inconclusive: 0.0891 µM [inhibitor, full curve, poor fit]	–

SMILES	Potency	activity change, negative = inhibition
O=C(CCc1ncc(-c2ccccc2F)o1)Nc1ccc(N2CCOCC2)cc1N1CCOCC1	inconclusive: 100 µM [inhibitor, single point]	–
Cc1cccc(NN)c1C	inconclusive: 10 µM [inhibitor, full curve, poor fit]	–
COC(=O)C1=C(CN2CCN(C)CC2)NC(=O)NC1c1cc(C)ccc1C (configuration not stated)	inconclusive: 100 µM [inhibitor, partial curve, poor fit]	–
COc1ccccc1-c1nc(CSc2nc(C)cc(=O)[nH]2)c(C)o1	inconclusive: 112 µM [inhibitor, single point]	–
O=C1C[C@@H](c2ccc(O[C@@H]3O[C@H](CO)[C@@H](O)[C@H](O)[C@H]3O)cc2)Oc2cc(O)ccc21	inconclusive: 56.2 µM [inhibitor, single point]	–
O=C(NCC1(O)CCCNCC1)C1(c2ccc(Cl)cc2)CCC1 (configuration not stated)	–	inactive: -28.6%
O=C(COC(=O)c1ccc(Br)cc1)NCCN1C(=O)CSC1=O	inconclusive: 44.7 µM [inhibitor, partial curve, poor fit]	–
CCC/C=N/Nc1nc2ccccc2s1	active: 39.8 µM	–
CCOc1ccc2nc(NC(=O)CSc3ccc(Cl)cc3)sc2c1	–	inactive: 0%
CCS(=O)c1ccccc1C(=O)NCc1ccc(C)cc1 (configuration not stated)	active: 17.8 µM	–
CCn1c2c(c(=O)n1-c1ccccc1)CCN(CCCc1ccccc1)C2	active: 28.2 µM	–
CCc1nnc(NC(=O)c2nc3nccc(C)n3n2)s1	inconclusive: 3.16 µM [inhibitor, full curve, poor fit]	–
CC1CCN(S(=O)(=O)c2cn(CC(=O)Nc3ccc(C#N)cc3)cn2)CC1	inconclusive: 126 µM [inhibitor, single point]	–
CCNC(=S)N/N=C(\C)c1ccc(N2CCOCC2)cc1	inconclusive: 44.7 µM [inhibitor, partial curve, poor fit]	–
CSCCC(NC(=O)c1ccco1)C(=O)N1CCCC(C(F)(F)F)C1 (configuration not stated)	–	inactive: 47.8%
COc1cc2cc(CN(Cc3cccs3)C(=S)Nc3ccccc3)c(=O)[nH]c2cc1OC	–	inactive: -5.75%
O=C(Nn1c(-c2ccncc2)nc2ccccc2c1=O)c1ccccc1Br	–	inactive: 1.71%
O=C1CCN(S(=O)(=O)c2ccccc2)CCCN(C(=O)CCCc2ccccc2)CCN1	–	inactive: 40.9%
O=C(NN1CCOCC1)c1ccn(COc2c(Cl)cccc2Cl)n1	–	inactive: 2.96%
O=C(O)C(Sc1nccc2ccccc12)c1ccccc1 (configuration not stated)	inconclusive: 44.7 µM [inhibitor, partial curve, poor fit]	–
N#CC1=C(SCC(=O)c2ccc(Br)cc2)NC2=C(C(=O)CCC2)C1c1ccco1 (configuration not stated)	inconclusive: 25.1 µM [inhibitor, partial curve, poor fit]	–
CC(=O)c1ccc(NC(=O)COC(=O)Cc2ccsc2)cc1	inconclusive: 141 µM [inhibitor, single point]	–
CC1CCN(c2ncncc2-c2nc(-c3ccccc3)no2)CC1	–	inactive: 18.3%

SMILES	Potency	activity change, negative = inhibition
Cc1ncoc1C(=O)N1CCC(F)(c2nc(-c3ccncc3)no2)CC1	–	inactive: 50.9%
Cc1cc(Br)ccc1NC(=O)CN(C)C(=O)Cc1csc(-c2ccc(F)cc2)n1	inconclusive: 89.1 µM [inhibitor, partial curve, poor fit]	–
Cc1ccc(C)c(OCCC(=O)OCC(=O)Nc2cc(S(=O)(=O)N3CCCCC3)ccc2C)c1	inconclusive: 44.7 µM [inhibitor, partial curve, poor fit]	–
COCC(=O)N[C@H]1C[C@@H](CO)N(Cc2ccc(C)s2)C1	–	inactive: 35.2%
Oc1ccc2ccccc2c1/C=N/Nc1ccccc1	inconclusive: 39.8 µM [inhibitor, partial curve, poor fit]	–
N#CCSc1ccc2nc(-c3ccccc3)cn2n1	inconclusive: 100 µM [inhibitor, partial curve, poor fit]	–
Cc1cc(C)c2cc(C(=O)OCc3ccc(C(=O)N4CCCC4)cc3)[nH]c2c1	inconclusive: 28.2 µM [inhibitor, partial curve, poor fit]	–
CCc1nc2c(c(-c3ccc(Cl)cc3)n1)CN(C(=O)Nc1ccccc1)CC2	inconclusive: 50.1 µM [inhibitor, partial curve, poor fit]	–
CN(CCc1ccccn1)C(=O)[C@@]12CCCC[C@H]1N(C)C(=O)CC2	inconclusive: 5.62 µM [inhibitor, full curve, poor fit]	–
O=C(NC1CC1)C1CCc2nnc(C3CC3)n21 (configuration not stated)	inconclusive: 112 µM [inhibitor, partial curve, poor fit]	–
COC(=O)c1cc(C(=O)N2CCc3ccccc32)cc([N+](=O)[O-])c1	inconclusive: 3.55 µM [inhibitor, single point]	–
CCONC(=O)NCc1ccc2cc(OC)ccc2c1	inconclusive: 44.7 µM [inhibitor, partial curve, poor fit]	–
CCc1nc2c(sc3cccc(F)c32)c(=O)n1CC(=O)Nc1ccc(C(C)=O)cc1	inconclusive: 126 µM [inhibitor, single point]	–
COc1cccc(CNC(=O)N2CCN(c3ccccc3C)CC2)c1	inconclusive: 3.98 µM [inhibitor, full curve, poor fit]	–
CSc1ccc(/C=C2\CCC(C3CCCC3)C2=O)cc1 (configuration not stated)	inconclusive: 0.447 µM [inhibitor, full curve, poor fit]	–
O=C(Nc1ccc(Cl)cc1)OCCn1nnnc1C(c1ccccc1Cl)N1CCOCC1 (configuration not stated)	–	inactive: 0%
COC(=O)c1cc2sccc2n1Cc1nc(-c2ccc(C)cc2)oc1C	inconclusive: 89.1 µM [inhibitor, partial curve, poor fit]	–
NC1CC(c2cc(N3CCN(c4ccc5nccn5n4)CC3)ncn2)C1 (configuration not stated)	inconclusive: 14.1 µM [inhibitor, partial curve, poor fit]	–
Cc1nn(C(C)C)c(C)c1CNC(=O)c1cn(CCC2CCCCN2)nn1 (configuration not stated)	inconclusive: 7.94 µM [inhibitor, full curve, poor fit]	–
CN(C(=O)CSc1nc2ccccc2n1CC(=O)N(C)C1CCCCC1)c1ccc(F)cc1	inconclusive: 158 µM [inhibitor, partial curve, poor fit]	–
CC(C)c1ccc(N/C=C/C(=O)c2ccc(Br)cc2)cc1	inconclusive: 79.4 µM [inhibitor, partial curve, poor fit]	–

Random excerpt: four compounds from above
SMILES	Potency	activity change, negative = inhibition
O=C1C[C@@H](c2ccc(O[C@@H]3O[C@H](CO)[C@@H](O)[C@H](O)[C@H]3O)cc2)Oc2cc(O)ccc21	inconclusive: 56.2 µM [inhibitor, single point]	–
CCC/C=N/Nc1nc2ccccc2s1	active: 39.8 µM	–
NC(Cc1cccc2nsnc12)C(=O)O (configuration not stated)	inconclusive: 0.398 µM [inhibitor, full curve, poor fit]	–
CCc1nnc(NC(=O)c2nc3nccc(C)n3n2)s1	inconclusive: 3.16 µM [inhibitor, full curve, poor fit]	–
